No constants are given. Whether binding was seen depends on the method and setting. In cells and extracts the contact can be indirect. Some binding calls cover weakened binding; strength is not graded here.

Sequences of proteins named here, by UniProt entry; tags and fusion partners are left off.
UniProt P37238: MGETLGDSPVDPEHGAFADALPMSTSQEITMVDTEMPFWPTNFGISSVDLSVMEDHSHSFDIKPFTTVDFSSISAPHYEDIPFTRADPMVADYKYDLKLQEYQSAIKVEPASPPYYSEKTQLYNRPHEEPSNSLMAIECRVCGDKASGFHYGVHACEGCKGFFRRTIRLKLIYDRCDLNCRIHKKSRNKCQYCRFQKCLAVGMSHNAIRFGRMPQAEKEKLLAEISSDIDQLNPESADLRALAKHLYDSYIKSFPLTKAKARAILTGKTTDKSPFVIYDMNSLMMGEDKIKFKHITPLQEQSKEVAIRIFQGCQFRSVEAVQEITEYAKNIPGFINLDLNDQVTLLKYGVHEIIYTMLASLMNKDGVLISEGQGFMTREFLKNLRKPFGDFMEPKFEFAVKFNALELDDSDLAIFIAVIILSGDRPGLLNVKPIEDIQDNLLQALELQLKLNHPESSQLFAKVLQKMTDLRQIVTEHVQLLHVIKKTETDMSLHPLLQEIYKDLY

The target of this experiment is T1, Staphylococcal Nuclease And Tudor Domain Containing 1 (mouse (endogenous in C3H10 and 3T3-L1)) (UniProt Q78PY7).
T1 sequence: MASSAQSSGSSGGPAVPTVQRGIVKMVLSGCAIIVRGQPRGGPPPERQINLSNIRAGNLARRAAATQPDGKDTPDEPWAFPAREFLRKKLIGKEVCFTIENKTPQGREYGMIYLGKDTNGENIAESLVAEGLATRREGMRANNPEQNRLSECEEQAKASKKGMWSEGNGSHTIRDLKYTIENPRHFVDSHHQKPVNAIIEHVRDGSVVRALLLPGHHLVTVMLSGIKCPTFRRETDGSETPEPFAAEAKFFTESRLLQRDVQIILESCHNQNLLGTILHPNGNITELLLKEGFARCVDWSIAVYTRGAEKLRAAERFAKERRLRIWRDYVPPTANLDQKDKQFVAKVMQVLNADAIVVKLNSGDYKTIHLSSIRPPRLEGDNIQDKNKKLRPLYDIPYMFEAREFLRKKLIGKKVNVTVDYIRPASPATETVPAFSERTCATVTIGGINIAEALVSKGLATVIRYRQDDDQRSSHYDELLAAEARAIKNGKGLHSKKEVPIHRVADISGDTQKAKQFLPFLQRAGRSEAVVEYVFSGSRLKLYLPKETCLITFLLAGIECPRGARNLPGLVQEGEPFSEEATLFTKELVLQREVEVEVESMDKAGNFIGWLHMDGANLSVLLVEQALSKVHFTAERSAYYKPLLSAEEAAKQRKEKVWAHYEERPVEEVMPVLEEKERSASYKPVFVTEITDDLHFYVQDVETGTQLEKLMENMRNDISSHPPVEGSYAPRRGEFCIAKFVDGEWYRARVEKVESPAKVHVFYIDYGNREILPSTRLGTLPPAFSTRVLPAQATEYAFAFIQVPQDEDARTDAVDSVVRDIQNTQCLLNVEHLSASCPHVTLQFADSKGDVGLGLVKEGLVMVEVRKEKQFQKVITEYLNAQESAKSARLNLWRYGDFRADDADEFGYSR
Put plainly: co-IP; endogenous proteins in RIPA lysates of C3H10 and 3T3-L1 cells, harvested at the indicated time points of adipogenic differentiation; antibody on Protein L magnetic beads, 1 h at room temperature, washed in PBST; IgG antibody as negative control; Western blot.

On to “Peroxisome proliferator activated receptor gamma (from UniProt P37238 1-505)”, for which the binding result is listed as “binds”.

B1: Microfibril-Associated Protein 5 (protein, UniProt Q9QZJ6 29-164)
chain: QRGDDVPETFTDDPNLVNDPSTDDTALADITPSTDDLAGDKNATAECRDEKFACTRLYSVHRPVRQCVHQSCFTSLRRMYIINNEICSRLVCKEHEAMKDELCRQMAGLPPRRLRRSNYFRLPPCENMNLQRPDGL
B1: the binding result was “binds”.

These data come from PMC10076305.
